Literature values as cited in patent US6610697B1, “Substituted 2-aryl-3-(heteroaryl)-imidazo[1,2-a]pyrimidines, and related pharmaceutical compositions and methods” (Ortho-McNeil Pharmaceutical, Inc., priority 1999, dated 2003).

Key:
[1] = system: TNF-α and IL-1; settings: read-out: IC50 for reducing production of TNF-α and IL-1; LPS-stimulated human monocyte cell lines; cited from earlier work
[2] = system: inflammatory cytokines; settings: cited from earlier work

Structure (SMILES): C[S+]([O-])c1ccc(-c2nc(-c3ccncc3)c(-c3ccc(F)cc3)[nH]2)cc1 (centres unmarked) [SB 203580]
- IC50 [1]: 50 to 100 nM
- IC50 for inhibiting production of the inflammatory cytokines in rats and mice [2]: 15 to 25 mg/kg
